Measured data: PubChem BioAssay AID504764 (Drosophila RNAi Screening Center, 2011)
The screen tested about 22,000 reagents; below is an unselected part of those that have a named target and a result. Of all reagents, 403 (1.9%) got an active call. 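Unnormalised raw counts per well; ratio z-scores behind the hit calls and whether each hit raises or lowers signal are not deposited.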 Names joined by + are all predicted targets of the reagent. Not given: the amount of reagent.

Aim: 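Genome-wide screen for regulators of Notch-driven gene expression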 (primary screen)
Cell system: Drosophila Kc167 cells
Knock-down reagent: long dsRNA against Drosophila genes
Timing: about 5 days (4 days dsRNA, then 24 h after transfection)
Challenge: transfection of constitutively active membrane-tethered Notch lacking the extracellular domain, read 24 h later
Read-out: 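Light from a Notch-responsive E(spl)m3 luciferase reporter under active Notch, with control-promoter and no-Notch reporter wells to normalise; raw counts from paired wells a and b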
Direction: induced reporter light, run 1, well a and induced reporter light, run 1, well b: higher = more light from the Notch target reporter with active Notch; control promoter light, run 1, well a and control promoter light, run 1, well b: higher = more light from the viral control promoter (cell number, transfection, viability); uninduced reporter light, run 1, well a: higher = more light from the Notch target reporter without active Notch
Hit rule: 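Wells with low control signal or poorly matching duplicates excluded; duplicates averaged; per source plate, z beyond ±2 for induced/control log2 ratio or beyond ±1.8 for induced/uninduced marks a hit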
Meaning of the calls: active = modifier hit (raised or lowered Notch signal); inactive = not a hit

The opening 5 entries as a preview:
predicted target | DRSC id | induced reporter light, run 1, well a | induced reporter light, run 1, well b | control promoter light, run 1, well a | control promoter light, run 1, well b | uninduced reporter light, run 1, well a | outcome
LSm3 (Like Sm 3) | DRSC15920 | 1.42e5 | 1.29e5 | 1.63e5 | 1.80e5 | 12460 | inactive
CAH2 (Carbonic anhydrase 2) | DRSC10746 | 1.62e5 | 1.26e5 | 1.92e5 | 1.67e5 | 8255 | inactive
CG14694 | DRSC14917 | 28470 | 30665 | 30030 | 25295 | 1795 | inactive
Picot | DRSC07508 | 1.39e5 | 1.35e5 | 2.58e5 | 2.40e5 | 9885 | inactive
mms4 (Methyl methanesulfonate sensitivity 4) | DRSC06249 | 1.35e5 | 1.61e5 | 1.80e5 | 1.94e5 | 13815 | inactive

Results, from the start:
predicted target | DRSC id | induced reporter light, run 1, well a | induced reporter light, run 1, well b | control promoter light, run 1, well a | control promoter light, run 1, well b | uninduced reporter light, run 1, well a | outcome
LSm3 (Like Sm 3) | DRSC15920 | 1.42e5 | 1.29e5 | 1.63e5 | 1.80e5 | 12460 | inactive
CAH2 (Carbonic anhydrase 2) | DRSC10746 | 1.62e5 | 1.26e5 | 1.92e5 | 1.67e5 | 8255 | inactive
CG14694 | DRSC14917 | 28470 | 30665 | 30030 | 25295 | 1795 | inactive
Picot | DRSC07508 | 1.39e5 | 1.35e5 | 2.58e5 | 2.40e5 | 9885 | inactive
mms4 (Methyl methanesulfonate sensitivity 4) | DRSC06249 | 1.35e5 | 1.61e5 | 1.80e5 | 1.94e5 | 13815 | inactive
CG2121 | DRSC06819 | 1.93e5 | 1.87e5 | 1.74e5 | 1.56e5 | 14938 | inactive
CG2121 | DRSC06820 | 2.09e5 | 1.81e5 | 2.35e5 | 2.39e5 | 16770 | inactive
PDCD-5 (Programmed Cell Death 5) | DRSC09955 | 2.73e5 | 1.90e5 | 2.70e5 | 2.32e5 | 13350 | inactive
ed (echinoid) | DRSC00350 | 1.67e5 | 2.28e5 | 2.13e5 | 2.23e5 | 16545 | inactive
ed (echinoid) | DRSC00438 | 1.72e5 | 1.47e5 | 2.40e5 | 1.83e5 | 10350 | inactive
ed (echinoid) | DRSC00439 | 1.72e5 | 1.32e5 | 1.38e5 | 1.31e5 | 7185 | inactive
ed (echinoid) | DRSC00478 | 60585 | 42820 | 47005 | 47130 | 3615 | inactive
CG3640 | DRSC04399 | 2.41e5 | 2.00e5 | 2.08e5 | 1.51e5 | 16338 | inactive
CG12680 | DRSC17871 | 1.04e5 | 90265 | 1.44e5 | 1.30e5 | 6770 | inactive
tacc (transforming acidic coiled-coil protein) | DRSC12019 | 2.39e5 | 2.57e5 | 3.55e5 | 2.54e5 | 19455 | inactive
tacc (transforming acidic coiled-coil protein) | DRSC12388 | 1.20e5 | 1.15e5 | 69240 | 91655 | 9300 | inactive
Ube4B (Ubiquitination factor E4B) | DRSC03277 | 2.85e5 | 2.30e5 | 1.87e5 | 1.79e5 | 14820 | inactive
CG13251 | DRSC11699 | 1.71e5 | 1.28e5 | 1.26e5 | 90255 | 9285 | inactive
Cyp9f3 (Cytochrome P450 9f3) | DRSC16636 | 78150 | 65735 | 65180 | 49850 | 4745 | inactive
l(3)72Dr (lethal (3) 72Dr) | DRSC10478 | 2.02e5 | 2.09e5 | 2.55e5 | 2.20e5 | 10535 | inactive
Bsg (Basigin) | DRSC01010 | 38535 | 43690 | 19590 | 16810 | 6625 | inactive
Bsg (Basigin) | DRSC01011 | 92255 | 70125 | 1.33e5 | 1.02e5 | 6625 | inactive
CG5639 | DRSC15851 | 1.23e5 | 1.29e5 | 1.88e5 | 1.68e5 | 12055 | inactive
CG13898 | DRSC08368 | 1.21e5 | 1.10e5 | 2.45e5 | 2.27e5 | 7965 | inactive
mldr (mulder) | DRSC18100 | 1.48e5 | 1.42e5 | 2.64e5 | 1.97e5 | 11300 | inactive
Nepl10 (Neprilysin-like 10) | DRSC07212 | 1.27e5 | 1.01e5 | 1.55e5 | 1.57e5 | 10805 | inactive
CG32369 | DRSC10042 | 1.38e5 | 1.20e5 | 1.73e5 | 1.37e5 | 19940 | inactive
CG32369 | DRSC10834 | 1.24e5 | 88500 | 70080 | 33480 | 9250 | inactive
CG6867 | DRSC20013 | 53710 | 49660 | 65565 | 60250 | 8640 | inactive
shf (shifted) | DRSC18283 | 1.39e5 | 1.45e5 | 2.49e5 | 1.98e5 | 11210 | inactive
Nprl2 (Nitrogen permease regulator-like 2) | DRSC20153 | 78355 | 88255 | 72565 | 36785 | 8255 | inactive
bisc (biscotti) | DRSC04083 | 70780 | 62145 | 43575 | 57030 | 5260 | inactive
sala (spalt-adjacent) | DRSC03605 | 1.03e5 | 1.26e5 | 68615 | 77390 | 15290 | inactive
CG13907 | DRSC08377 | 1.10e5 | 1.15e5 | 1.89e5 | 2.08e5 | 10385 | inactive
ms(3)76Cc (male sterile (3) 76Cc) | DRSC11071 | 1.74e5 | 1.40e5 | 1.22e5 | 1.14e5 | 10285 | inactive
CG8777 | DRSC07263 | 1.51e5 | 1.16e5 | 1.42e5 | 1.41e5 | 13245 | inactive
slim (scruin like at the midline) | DRSC06921 | 1.04e5 | 1.24e5 | 2.00e5 | 2.04e5 | 7465 | inactive
Mzt1 (Mitotic spindle organizing protein 1) | DRSC07979 | 2.04e5 | 1.83e5 | 2.11e5 | 2.47e5 | 14260 | inactive
CG9626 | DRSC16525 | 99935 | 1.05e5 | 76015 | 67040 | 9020 | inactive
Dhrs4 (Dehydrogenase/reductase 4) | DRSC09773 | 1.32e5 | 1.36e5 | 1.04e5 | 63995 | 10800 | inactive
Cog7 (Component of oligomeric golgi complex 7) | DRSC16331 | 1.16e5 | 1.36e5 | 1.55e5 | 1.61e5 | 10935 | inactive
CG8229 + CG33199 | DRSC05134 | 39605 | 53880 | 60695 | 74445 | 2495 | inactive
sog (short gastrulation) | DRSC20379 | 89245 | 89030 | 89100 | 98065 | 11010 | inactive
gammaSnap1 (gamma Soluble NSF attachment protein 1) | DRSC04686 | 2.12e5 | 1.61e5 | 1.50e5 | 1.87e5 | 12875 | inactive
CG15385 | DRSC00399 | 1.37e5 | 1.20e5 | 1.04e5 | 74375 | 8740 | inactive
Gpa2 (Glycoprotein hormone alpha 2) | DRSC21071 | 1.09e5 | 1.15e5 | 91730 | 1.23e5 | 9050 | inactive
Rac2 | DRSC11262 | 1.80e5 | 1.39e5 | 1.82e5 | 1.70e5 | 7670 | inactive
Sec16 (Secretory 16) | DRSC19788 | 1.05e5 | 91005 | 1.44e5 | 1.30e5 | 6480 | inactive
Sec16 (Secretory 16) | DRSC19858 | 1.17e5 | 1.31e5 | 2.04e5 | 2.43e5 | 9645 | inactive
alc (alicorn) | DRSC07062 | 1.64e5 | 1.67e5 | 2.55e5 | 2.19e5 | 15165 | inactive
